{
  "source": "patent US9844563B2",
  "about": "“Compositions, kits, and methods to induce acquired cytoresistance using stress protein inducers” (FRED HUTCHINSON CANCER RESEARCH CENTER, priority 2014, dated 2017)",
  "molecules": {"B1": {"name": "N-Mgb: horse skeletal muscle myoglobin converted into a nitrited form by equimolar Na nitrite (protein, UniProt P68082 2-154, looked up)", "Myoglobin": "GLSDGEWQQVLNVWGKVEADIAGHGQEVLIRLFTGHPETLEKFDKFKHLKTEAEMKASEDLKKHGTVVLTALGGILKKKGHHEAELKPLAQSHATKHKIPIKYLEFISDAIIHVLHSKHPGDFGADAQGAMTKALELFRNDIAAKYKELGFQG", "modifications": "nitrited with sodium nitrite"}},
  "test_system": "Haptoglobin",
  "assay": "Dose-response after IP N-Mgb−SnPP: renal cortical and plasma haptoglobin",
  "type": "in vivo, mice",
  "settings": "IP N-Mgb doses with fixed SnPP 1 umol",
  "data": [
    {"molecule": "B1", "values": [
      {"measurement": "correlation (r) dose administered vs plasma haptoglobin levels", "value": 0.75},
      {"measurement": "correlation coefficient plasma vs renal concentrations, haptoglobin", "value": 0.82}
    ]}
  ]
}
